## Results of single-concentration screens

Source: ChEMBL document CHEMBL3988442, “University of Dundee, Small-Polar-MMV Screening Library” (2021).

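Assay of Toxoplasma gondii numbers, read through their beta-galactosidase reporter with a colour substrate. Concentration: 50 µM. Higher reads as fewer parasites (inferred from which compounds were picked for retests). Size under these conditions: about 18,000 compounds, about 170 of them at 50% or above in at least one test.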

The filed quantity is “Percent Effect” (%). How 0% and 100% were set is not recorded. Most values in the screen are low, and negative values occur. The compounds are a random part of those screened.

{"smiles": "N[C@H]1CC[C@@H](C(F)(F)F)C1", "effect": 1.167}
{"smiles": "O=S1(=O)CCC(CNc2ccnc3cc(F)ccc23)C1", "stereo": "stereo not given", "effect": 28.65}
{"smiles": "NCc1nc(-c2cccc(C(F)(F)F)c2)no1", "effect": -22.91}
{"smiles": "CC(C)(C#N)C1CCNCC1", "effect": -13.91}
{"smiles": "CNC1CCN(C(=O)c2ccccc2)CC1", "effect": -6.231}
{"smiles": "Cc1ccccc1OCC(=O)Nc1cn[nH]c1", "effect": 0.1752}
{"smiles": "CNC(=O)Cc1noc(Cc2ccc(O)cc2Cl)n1", "effect": 3.851}
{"smiles": "NCCNCC(F)(F)F", "effect": -18.2}
{"smiles": "CN(C)Cc1nc(C(=O)N2CCN(C)CC(O)C2)cs1", "stereo": "stereo not given", "effect": -2.474}
{"smiles": "O=C(NC1CC1)N1CCSCC1CCO", "stereo": "stereo not given", "effect": 3.348}
{"smiles": "CN(C)c1cc(CNC(=O)c2nccnc2N)ccn1", "effect": 58.76}
{"smiles": "COc1ccc(OCCCS(N)(=O)=O)cc1", "effect": -11.33}
{"smiles": "O=C1CCC(=O)N1Cc1cc(F)cc2cccnc12", "effect": -5.873}
{"smiles": "COc1cc2c(cc1CN1CCNC(=O)CC1)CCC2", "effect": -0.3312}
{"smiles": "COCCNc1nc(-c2ccc(O)cc2O)cs1", "effect": 0.3364}
{"smiles": "CSc1ccc(OCCN)cc1", "effect": -10.02}
{"smiles": "CCS(=O)(=O)CC1(O)CCCCC1", "effect": 5.771}
{"smiles": "CCCOc1nsnc1N1CCOCC1", "effect": 0.9197}
{"smiles": "CS(=O)(=O)CCCNC1(c2nccs2)CCCC1", "effect": 12.7}
{"smiles": "CC(C)(C)NC(=O)C1CCCCN1", "stereo": "stereo not given", "effect": 3.568}
{"smiles": "O=C(NCCCF)N1CCN(Cc2ccncc2)CC1", "effect": 13.14}
{"smiles": "CNC1CCCNC1=O", "stereo": "stereo not given", "effect": 10.57}
{"smiles": "CCc1n[nH]c2c1CN(C(=O)CNC(N)=O)CC2", "effect": 6.836}
{"smiles": "CNC(C)(CO)c1ccccc1", "stereo": "stereo not given", "effect": 10.71}
{"smiles": "c1cnc2ncnc(NC3CCOC3)c2c1", "stereo": "stereo not given", "effect": -11.78}
{"smiles": "CCOC(=O)c1nc(C)n(C)n1", "effect": -12.41}
{"smiles": "Cc1ccc(-n2nnc(C(N)=O)c2C)cc1", "effect": -3.008}
{"smiles": "NC1CCOC2(CCC2)C1", "stereo": "stereo not given", "effect": 1.474}
{"smiles": "CCOC(=O)CCNC(=O)C1CCCCCN1C", "stereo": "stereo not given", "effect": 3.01}
{"smiles": "Cc1nocc1C(=O)N1C[C@@H](CO)[C@H](N(C)C)C1", "effect": -2.218}
{"smiles": "CS(=O)(=O)CCSc1nccn1Cc1ccccn1", "effect": 2.489}
{"smiles": "NCc1cnn(-c2ccc(Cl)cc2)c1", "effect": -8.242}
{"smiles": "O=C(NCCN1CCNCC1)c1ccccc1F", "effect": 10.42}
{"smiles": "CCCNS(=O)(=O)c1nc2nc(C)cc(C)n2n1", "effect": 46.69}
{"smiles": "CCCNCCN1CCN(CC)CC1", "effect": -10.97}
{"smiles": "c1cn(C2CCCNCC2)nn1", "stereo": "stereo not given", "effect": 29.95}
{"smiles": "Cn1ccnc1CSCCN1CCOCC1", "effect": -4.611}
{"smiles": "CN(C)c1ncccc1CNC(=O)NCC1CCCO1", "stereo": "stereo not given", "effect": -3.543}
{"smiles": "CCCN1CCN(C(=O)c2c(C)nn(C)c2C)CC1", "effect": -2.714}
{"smiles": "Cc1cccc(NCC2CCS(=O)(=O)CC2)n1", "effect": 2.487}
{"smiles": "CC(C)(C)c1n[nH]cc1CNCCNS(C)(=O)=O", "effect": -18.16}
{"smiles": "CN1CCCCC1C(=O)NCCOCc1ccccc1", "stereo": "stereo not given", "effect": 4.279}
{"smiles": "OCCNC1CCOCC1", "effect": -2.057}
{"smiles": "NC(=O)C[C@H](N)c1ccccc1", "effect": 8.251}
{"smiles": "COc1cccc(CS(=O)(=O)Nc2ccc(C)nc2)c1", "effect": 14.49}
{"smiles": "CC(=O)Nc1cccc(C(C)N)c1", "stereo": "stereo not given", "effect": -10.03}
{"smiles": "CCNC(=O)CN(CC)C(=O)COc1ccccc1C", "effect": -6.133}

The first 6 entries again:

{"smiles": "N[C@H]1CC[C@@H](C(F)(F)F)C1", "effect": 1.167}
{"smiles": "O=S1(=O)CCC(CNc2ccnc3cc(F)ccc23)C1", "stereo": "stereo not given", "effect": 28.65}
{"smiles": "NCc1nc(-c2cccc(C(F)(F)F)c2)no1", "effect": -22.91}
{"smiles": "CC(C)(C#N)C1CCNCC1", "effect": -13.91}
{"smiles": "CNC1CCN(C(=O)c2ccccc2)CC1", "effect": -6.231}
{"smiles": "Cc1ccccc1OCC(=O)Nc1cn[nH]c1", "effect": 0.1752}